PubChem BioAssay AID1259405 – NCATS | 2018
In all, the deposit lists about 50,000 reagents; shown is a part drawn at random. Over the whole deposit, about 4,000 (8%) are marked active. 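Mouse siRNA library applied to hamster cells; one well for each siRNA.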 A number with no mark means an inactive call. Reagents against one gene are numbered here.

Screen: 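Mouse-designed siRNAs used to find CHO productivity engineering targets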 (primary screen)
Cell system: Chinese hamster CHO-K1 ovary cells with stable secreted eGFP expression
Knock-down reagent: single siRNA against mouse genes, 0.8 pmol siRNA per well (2 µl of 400 nM stock)
Time to read-out: 3 days
Read-out: 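Percent of the per-plate non-targeting control median for intracellular GFP per well by laser scanning cytometry and for cell viability by ATP luminescence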
Direction: GFP, % of control: higher = more GFP per well, higher productivity; viability (ATP), % of control: higher = more viable cells (more ATP)
Hit rule: 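Called active when intracellular GFP, relative to negative control, is at or above 120%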

gene | reagent no. | GFP, % of control | viability (ATP), % of control
St6galnac4 | 1 | 88.5 | 68.6
St6galnac4 | 2 | 59.2 | 81.4
St6galnac4 | 3 | 61.7 | 94.1
Dzip1l | 1 | 132 (active) | 122
Dzip1l | 2 | 101 | 92.5
Dzip1l | 3 | 96.1 | 63.6
Batf | 1 | 73.3 | 95.4
Batf | 2 | 29.5 | 30.5
Batf | 3 | 49.8 | 88.7
Dock11 | 1 | 123 (active) | 78.3
Dock11 | 2 | 101 | 81.5
Dock11 | 3 | 60.1 | 79.6
Apoa4 | 1 | 107 | 93.4
Apoa4 | 2 | 106 | 113
Apoa4 | 3 | 116 | 83.6
Pomgnt2 | 1 | 68.9 | 47.4
Pomgnt2 | 2 | 81.9 | 94.4
Pomgnt2 | 3 | 82 | 39.3
Ecm1 | 1 | 99.1 | 68.3
Ecm1 | 2 | 94.3 | 98.9
Ecm1 | 3 | 72.1 | 79.8
Nr3c1 | 1 | 111 | 109
Nr3c1 | 2 | 69 | 93
Zfp35 | 1 | 74 | 80.7
Zfp35 | 2 | 67 | 87.7
Zfp35 | 3 | 72.9 | 72
Mug7-ps | 1 | 99.2 | 94.3
Mug7-ps | 2 | 58.4 | 57
Mug7-ps | 3 | 105 | 68.4
Pfdn5 | 1 | 112 | 119
Pfdn5 | 2 | 127 (active) | 103
Rhox10 | 1 | 84.8 | 59.1
Rhox10 | 2 | 77.5 | 93.9
Rhox10 | 3 | 60.6 | 60.9
Dnaaf10 | 1 | 43.3 | 37.5
Dnaaf10 | 2 | 61.8 | 73.4
Dnaaf10 | 3 | 56.5 | 39.4
Fbxw16 | 1 | 87.9 | 70.3
Fbxw16 | 2 | 92.3 | 92.9
Fbxw16 | 3 | 129 (active) | 117
Or8h9 | 1 | 80.1 | 38.4
Or8h9 | 2 | 46.9 | 51.9
Or8h9 | 3 | 45.4 | 58.8
Fez1 | 1 | 68.2 | 68.9
Fez1 | 2 | 102 | 86.8
Fez1 | 3 | 131 (active) | 78.8
Chmp4b | 1 | 53.3 | 65
Chmp4b | 2 | 28.1 | 33.5
Chmp4b | 3 | 69.9 | 51.3
Spink2 | 1 | 52.4 | 87.3
Spink2 | 2 | 62.5 | 83.6
Spink2 | 3 | 78.5 | 106
Zfp263 | 1 | 76.6 | 106
Zfp263 | 2 | 41.5 | 77.4
Zfp263 | 3 | 50.3 | 81.9
Tfam | 1 | 80.5 | 99.3
Tfam | 2 | 112 | 140
Tfam | 3 | 157 (active) | 175
Sgo1 | 1 | 125 (active) | 85.2
Sgo1 | 2 | 96.7 | 87.6
Sgo1 | 3 | 69.6 | 88
Tmem120a | 1 | 183 (active) | 50.5
Tmem120a | 2 | 86.5 | 114
Tmem120a | 3 | 104 | 118
Aif1 | 1 | 91.8 | 88.3
Aif1 | 2 | 91.5 | 65.4
Smc5 | 1 | 152 (active) | 101
Smc5 | 2 | 103 | 98.2
Dctn6 | 1 | 86.5 | 67.6
Dctn6 | 2 | 56.2 | 82.1
Iqcj | 1 | 92.8 | 99.7
Iqcj | 2 | 130 (active) | 74.3
Iqcj | 3 | 107 | 84.4
Ces1g | 1 | 94.2 | 71.5
Ces1g | 2 | 105 | 75.7
Ces1g | 3 | 55.3 | 92.5
Dhrs4 | 1 | 125 (active) | 96.7
Dhrs4 | 2 | 74.3 | 81.2
Dhrs4 | 3 | 59.9 | 59.9
Nsa2 | 1 | 43.8 | 57.4
Nsa2 | 2 | 52.6 | 64.6
Nsa2 | 3 | 56 | 106
Dnai3 | 1 | 58.8 | 58.6
Dnai3 | 2 | 65.5 | 85.3
Dnai3 | 3 | 75.7 | 79.2

Called active (from the list above):
gene | reagent no. | GFP, % of control | viability (ATP), % of control
Dzip1l | 1 | 132 (active) | 122
Dock11 | 1 | 123 (active) | 78.3
Pfdn5 | 2 | 127 (active) | 103
Fbxw16 | 3 | 129 (active) | 117
Fez1 | 3 | 131 (active) | 78.8
Tfam | 3 | 157 (active) | 175
Sgo1 | 1 | 125 (active) | 85.2
Tmem120a | 1 | 183 (active) | 50.5
Smc5 | 1 | 152 (active) | 101
Iqcj | 2 | 130 (active) | 74.3
Dhrs4 | 1 | 125 (active) | 96.7
